Reference: PubChem BioAssay AID1159584 (Peter MacCallum Cancer Centre, 2016)
In all, the deposit lists about 18,000 reagents; this is an unselected part. The record does not give: the amount of reagent, the time to read-out.

- Test: 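Knock-downs that harm CDH1-null cells more than parental MCF10A cells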 (primary screen)
- Cell system: human MCF10A breast epithelial cells, parental and CDH1-null
- Knock-down reagent: siRNA against human genes
- Measurement: 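Cell viability by CellTiter-Glo ATP luminescence, each line scaled to the mean of mock wells across plates, then CDH1-null over parental ratio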
- Reading the numbers: CDH1-null / parental viability ratio: higher = CDH1-null cells survive relatively better than parental; CDH1-null viability vs mock: higher = more viable CDH1-null cells; parental viability vs mock: higher = more viable parental cells

| gene symbol | CDH1-null / parental viability ratio | CDH1-null viability vs mock (fraction of mock) | parental viability vs mock (fraction of mock) |
| --- | --- | --- | --- |
| DYNLT4 | 1.21 | 0.98 | 0.81 |
| RPL27A | 1.72 | 0.31 | 0.18 |
| RBM42 | 1 | 0.35 | 0.35 |
| ETV5 | 0.98 | 0.86 | 0.88 |
| WBP1L | 1 | 0.68 | 0.68 |
| MTM1 | 1.95 | 0.82 | 0.42 |
| NDUFAF3 | 1.18 | 0.66 | 0.56 |
| MRPL43 | 1.15 | 0.82 | 0.71 |
| SEBOX | 1.18 | 1.05 | 0.89 |
| P2RY4 | 0.88 | 0.76 | 0.86 |
| ITGA1 | 1.42 | 0.68 | 0.48 |
| HDAC5 | 1.22 | 0.98 | 0.8 |
| SLC2A14 | 0.95 | 0.72 | 0.76 |
| RTRAF | 1.27 | 0.81 | 0.64 |
| CATSPERE | 1.02 | 0.88 | 0.86 |

Targets listed so far whose target name starts with R or r (3):
| gene symbol | CDH1-null / parental viability ratio | CDH1-null viability vs mock (fraction of mock) | parental viability vs mock (fraction of mock) |
| --- | --- | --- | --- |
| RPL27A | 1.72 | 0.31 | 0.18 |
| RBM42 | 1 | 0.35 | 0.35 |
| RTRAF | 1.27 | 0.81 | 0.64 |

Further reagents follow.
| gene symbol | CDH1-null / parental viability ratio | CDH1-null viability vs mock (fraction of mock) | parental viability vs mock (fraction of mock) |
| --- | --- | --- | --- |
| TPCN2 | 1.32 | 1.06 | 0.8 |
| ZNF573 | 1.17 | 0.84 | 0.72 |
| SETD2 | 0.85 | 0.58 | 0.68 |
| REEP5 | 1.25 | 1.19 | 0.95 |
| RGS2 | 1.14 | 1 | 0.88 |
| DROSHA | 1.11 | 0.82 | 0.74 |
| ACP2 | 1.37 | 0.78 | 0.57 |
| ADGRE2 | 0.85 | 0.72 | 0.85 |
| SERPINA13P | 1.09 | 0.94 | 0.86 |
| TNFRSF19 | 1.04 | 1.14 | 1.1 |
| STAT3 | 1.02 | 0.92 | 0.9 |
| NOL11 | 1.29 | 0.66 | 0.51 |
| RAP1GAP2 | 1.23 | 0.9 | 0.73 |
